From PubChem BioAssay AID540276 (National Center for Advancing Translational Sciences (NCATS), 2011)
Hit rate of the full screen: of about 300,000 compounds, about 5,400 (1.8%) were called active. The shares of active, inactive and inconclusive entries below differ from those in the screen. Calls come from the whole dose curve; tested in HEK293 cells. Potencies of inconclusive entries are doubtful fits and often do not repeat.

test: qHTS for inhibitors of binding or entry into cells for Marburg Virus; conditions: Marburg virus pseudotyped entry inhibition, cell reporter; activity change, negative = inhibition: at 37.8 µM (top of the series) unless noted
% is set by controls: 0 for no effect and ±100 for the full control effect; potency is the fitted concentration of half-maximal effect.

Question: Which Potency does the source give for COc1ccc(C2c3cc4c(cc3OC(NNC(N)=O)C2C)OCO4)cc1 (stereo not given) here?
Answer: inconclusive: 0.282 µM [inhibitor, full curve, poor fit]

Question: With CC1(C)O[C@H]2O[C@H]([C@H](O)CON=C3[C@H]4CCn5c(=O)n(-c6ccccc6)c(=O)n5[C@@H]4[C@H](O)[C@@H]4O[C@H]34)[C@H](O)[C@@H]2O1 as the compound, how does the Potency read?
Answer: inconclusive: 2.99 µM [activator, single point]

Question: For CCCS(=O)(=O)c1ncc(Cl)c(C(=O)Nc2c(C(=O)Nc3ccccc3)oc3ccccc23)n1, which “activity change, negative = inhibition” value is on record?
Answer: inactive: -15.2% [at 46.1 µM]

Question: Which “activity change, negative = inhibition” value does the source give for COc1cccc(N2C(N)=NC(N)=NC2(C)C)c1 here?
Answer: inactive: -25.8%

Question: For O=C1CN(C(=O)CSc2nc3ccccc3c(=O)n2Cc2ccc(F)cc2)c2ccccc2N1, which Potency is on record?
Answer: inconclusive: 11.2 µM [inhibitor, partial curve, poor fit]

Question: Which Potency does the source give for Cc1ccc(C2(c3ccc(C)cc3)CC2C(=O)NC(C)C)cc1 (stereo not given) here?
Answer: active: 12.6 µM

Question: Which Potency does the source give for O=C(CN1CCN(Cc2ccccc2F)C1=O)NCc1ccco1 here?
Answer: inconclusive: 29.1 µM [activator, single point]

Question: For Cc1ccc(NC(=S)NC(=O)c2ccc(-c3ccccc3)cc2)c(C)c1, which Potency is on record?
Answer: inconclusive: 22.4 µM [inhibitor, single point]

Question: Which Potency does the source give for CCC(C)(C)C1CCC(=NNS(=O)(=O)c2ccc(C)c([N+](=O)[O-])c2)CC1 (stereo not given) here?
Answer: inconclusive: 2.51 µM [activator, single point]

Question: For CN(CC(=O)Nc1nc2ccccc2s1)S(=O)(=O)c1ccc(Cl)cc1, which “activity change, negative = inhibition” value is on record?
Answer: inactive: 14.1%

Question: Which Potency does the source give for Cc1sc(NC(=O)c2cc3ccccc3oc2=O)c(C(=O)OC(C)C)c1-c1ccccc1 here?
Answer: inconclusive: 2.82 µM [inhibitor, partial curve, poor fit]

Question: Which Potency does the source give for COCCNS(=O)(=O)c1cccn1-c1ncc(C(F)(F)F)cc1Cl here?
Answer: inconclusive: 35.5 µM [activator, single point]

Question: With CC1CCC(C(C)C)C(OC(=O)CSc2n[nH]c(=O)[nH]c2=O)C1 (stereo not given) as the compound, how does the “activity change, negative = inhibition” value read?
Answer: inactive: 1.15%

Question: For CCCCCNc1nc2ccccc2nc1NS(=O)(=O)c1cccs1, which “activity change, negative = inhibition” value is on record?
Answer: inactive: -2.25%

Question: For C/C(=N/NC(=O)c1cc(C(C)C)[nH]n1)c1cccs1, which Potency is on record?
Answer: inconclusive: 9.2 µM [inhibitor, partial curve, poor fit]

Question: With CC(=O)[C@@]1(O)CC[C@H]2[C@@H]3CCC4=CC(=O)CC[C@]4(C)[C@H]3[C@@H](O)C[C@@]21C as the compound, how does the “activity change, negative = inhibition” value read?
Answer: inactive: 17.5%

Question: With O=C(NCCc1ccc(Cl)cc1)c1ccc2c(c1)OCO2 as the compound, how does the Potency read?
Answer: inconclusive: 1.12 µM [activator, full curve, poor fit]

Question: With O=C(CCl)Nc1cn(-c2ccccc2)nc1-c1ccc(F)cc1 as the compound, how does the Potency read?
Answer: inconclusive: 4.47 µM [inhibitor, single point]

Question: With CCOC(=O)c1ccc2c(c1)nc(SCC(=O)c1ccco1)n2CC as the compound, how does the Potency read?
Answer: inconclusive: 35.5 µM [inhibitor, single point]

Question: Which “activity change, negative = inhibition” value does the source give for CC(C)(C)NC(=S)Nc1ccc(Br)cc1 here?
Answer: inactive: 5.47%

Question: For COc1cccc(CNC(=O)C2CCN(C(=O)c3cnn(-c4ccccc4)c3-n3cccc3)CC2)c1, which Potency is on record?
Answer: inconclusive: 6.31 µM [inhibitor, single point]

Question: With C=CCS(=O)(=O)N1CCC(CCOc2ccccc2)(C(=O)OCC)CC1 as the compound, how does the Potency read?
Answer: inconclusive: 35.5 µM [inhibitor, single point]

Question: Which Potency does the source give for CCOC(=O)c1c(NC(=O)CCNCc2ccco2)sc2c1CCC2 here?
Answer: inconclusive: 23.1 µM [inhibitor, single point]

Question: Which Potency does the source give for COCCCNCCCCOc1ccccc1-c1ccccc1 here?
Answer: inconclusive: 14.6 µM [inhibitor, partial curve, poor fit]

Question: With CCC(C)(C)n1nnnc1C(c1ccc(C)cc1)N1CCN(Cc2ccc3c(c2)OCO3)CC1 (stereo not given) as the compound, how does the Potency read?
Answer: inconclusive: 20.6 µM [inhibitor, single point]

Question: For CCOC(=O)CSc1nnc(CNC(=O)c2cc(OC)c(OC)c(OC)c2)n1C, which Potency is on record?
Answer: inconclusive: 1.58 µM [inhibitor, single point]

Question: Which Potency does the source give for CNC(=O)c1c(NC(=O)c2nc(SCc3ccc(C)cc3)ncc2Cl)sc2c1CCCC2 here?
Answer: inconclusive: 0.631 µM [inhibitor, full curve, poor fit]

Question: Which “activity change, negative = inhibition” value does the source give for COCCNC(=O)c1cccc(OC2CCN(Cc3ccccc3C)CC2)c1 here?
Answer: inactive: -3.43% [at 46.1 µM]

Question: With O=C(CCS(=O)(=O)c1ccccc1)Nc1nc(-c2ccc(F)cc2)cs1 as the compound, how does the Potency read?
Answer: inconclusive: 6.31 µM [inhibitor, partial curve, poor fit]

Question: For COc1ccccc1C(C)N(C)Cc1nc(COc2ccccc2)no1 (stereo not given), which “activity change, negative = inhibition” value is on record?
Answer: inactive: -15.3% [at 46.1 µM]

Question: With COc1ccc(/C=C/C(=O)c2ccc3c4c(cccc24)CC3)cc1OC as the compound, how does the Potency read?
Answer: inconclusive: 3.98 µM [inhibitor, partial curve, poor fit]

Question: Which Potency does the source give for N=c1c2c(-c3ccccc3)c(-c3ccccc3)n(Cc3ccccc3)c2ncn1CCCn1ccnc1 here?
Answer: inconclusive: 1.78 µM [inhibitor, full curve, poor fit]

Question: For Cc1ccc2nc(-c3cccc(N)c3)[nH]c2c1, which Potency is on record?
Answer: inconclusive: 11.2 µM [inhibitor, partial curve, poor fit]

Question: With O=C(O)CCn1c(SCc2cc(=O)n3ccccc3n2)nc2ccsc2c1=O as the compound, how does the Potency read?
Answer: inconclusive: 3.55 µM [inhibitor, partial curve, poor fit]

Question: Which Potency does the source give for CN(Cc1ccccc1)C(=O)CCS(=O)(=O)c1ccc2c(c1)oc(=O)n2C here?
Answer: inconclusive: 6.31 µM [inhibitor, single point]

Question: For CCc1ccccc1NC(=O)CSc1nnc(-c2ccco2)n1N, which Potency is on record?
Answer: inconclusive: 1.46 µM [inhibitor, partial curve, poor fit]

Question: Which Potency does the source give for COc1cccc(N2CCN(C(=O)c3cc(-c4ccc(F)cc4)[nH]c3C)CC2)c1 here?
Answer: inconclusive: 0.794 µM [inhibitor, full curve, poor fit]

Question: With O=C(O)/C(=C\c1ccccc1OC(F)F)Sc1nnc(-c2ccc(F)cc2)o1 as the compound, how does the Potency read?
Answer: inconclusive: 0.355 µM [inhibitor, full curve, poor fit]

Question: For Cc1ccc(CNC(=O)C2CCN(S(=O)(=O)c3cccs3)CC2)o1, which “activity change, negative = inhibition” value is on record?
Answer: inactive: 14.3%

Question: For O=C(CNC(=O)c1sc2ccccc2c1Cl)NCc1ccc(F)cc1, which Potency is on record?
Answer: inconclusive: 2.51 µM [inhibitor, partial curve, poor fit]
